These are yes or no findings as the source states them, for the method shown. Some results given as binding are weak or reduced against the parent protein; the word gives no strength.
B1: V12t (VHH)
VHH: QVQLQESGGGLVQAGGSLRLSCAASGLVFKRYSMNWYRQPPGQQRGLVASISDSGVSTNYADSVKGRFTISRDNAKNIGYLQMNSLKPEDTAVYYCNMHTFWGQGTQVTVSS
notes: Llama VHH with C-terminal Myc- and His6-tag; also called monovalent anti-CD40 VHH V12t
B2: V19t (VHH)
VHH: QVQLQESGGGLVQAGGSLRLSCAASGRTFGRSAMGWFRQAPGKEREFVAAIGTRGGSTKYADSVKGRFTISTDNASNTVYLQMDSLKPEDTAVYRCAVRGPGYPSAAIFQDEYHYWGQGTQVTVSS
B3: V15t (VHH)
VHH: EVQLQESGGGLVQAGGSLRLSCVTSGSAFSSDTMGWFRQAPGKQRELVASISSRGVREYADSVKGRFTISRDNAKNTVYLQMNSLQPEDTAVYYCNRGALGLPGYRPYNNWGQGTQVTVSS
notes: Llama VHH with C-terminal Myc- and His6-tag; also called monovalent anti-CD40 VHH V15t

The chains behind the UniProt entries cited, without tags or fusion partners. Residues count along the entry.
UniProt P25942, residues 21-193: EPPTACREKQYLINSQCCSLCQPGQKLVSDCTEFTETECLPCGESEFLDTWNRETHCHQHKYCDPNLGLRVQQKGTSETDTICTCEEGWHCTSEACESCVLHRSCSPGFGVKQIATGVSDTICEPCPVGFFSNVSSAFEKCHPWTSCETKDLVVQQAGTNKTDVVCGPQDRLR

What follows are binders tested against IgG1-Fc-tagged human CD40 (71174, BPS Bioscience) (human) (UniProt P25942) (assay: ELISA screen, periplasmic extracts on plate-coated IgG1-Fc-tagged human CD40, anti-Myc detection).

binding	Binder
binds	B1
binds	B2
binds	B3

From patent US20220135694A1, “NOVEL CD40-BINDING ANTIBODIES” (LAVA THERAPEUTICS B.V., priority 2019, published 2022)
